# Out of some 52,000 sequences screened, about 210 (0.4%) were called active.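 How the source made its calls: active means gene whose silencing raises cell survival under the drug, median off-target-corrected z-score across its silencing RNAs 2 or more; inactive means the rest.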 The list shows a part of the results.
# Test: Resistance to Poly (ADP-Ribose) Polymerase inhibitor: Gene Identification via Genome-wide siRNA Screen
# Conditions: mouse BRCA2 R2336H ES cells, olaparib, CellTiter-Glo viability; active compounds read high
# Procedure, shortened: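 Genome-wide siRNA screen (3 siRNAs/gene, 20 nM) in mouse ES cells carrying hypomorphic BRCA2 R2336H; olaparib 500 nM added 48 h post-transfection, CellTiter-Glo viability 72 h later. Normalized to plate-median negative control; MAD z-scores, gene median, seed-adjusted.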
row,Sequence,z-score
1,GCCGUCACAAGAACUGAACTT against D10Ucla2,inactive: -1.28
2,GAAUUACACACAGGCCUGATT against Olfr1048,inactive: -0.664
3,GGUGAGGACCAAAAGCUGGTT against Plcd4,inactive: 0.327
4,GCCAGCAAAAGACACAAUATT against 2610028F08Rik,inactive: -0.399
5,GGAUCACUAUUGCUCCCAUTT against 4930432K21Rik,inactive: 0.25
6,CCGUAAGUCUCGGAUCUCCTT against A330045H12Rik,inactive: 1.38
7,GCUAUAGGGACCUCUGUCATT against Cdh5,inactive: -2.38
8,CGAUGCAAAAAGAAUAGACTT against Mark1,inactive: -0.143
9,GCAACCGAAUUUUACCUCUTT against Olfr820,inactive: 0.0806
10,GGAUUACGGUGGGAUCAUGTT against 6230409E13Rik,inactive: -2.86
11,GGUUUUCAAAAGUGGAGAATT against Ubr1,inactive: -0.766
12,GACUGGGUAACCCAUCCCUTT against Srd5a1,inactive: -0.254
13,AGAACAGCUACUUUCUGACTT against Cebpe,inactive: -0.29
14,CCUCGUGUUAUGCAUGGAATT against Kitl,inactive: 0.503
15,GCAGGUGCCAACAUUAUUGTT against 0610039C21Rik,inactive: 1.5
16,GAGGUUUAUUGUAAUGGCUTT against Olfr1271,inactive: 0.924
17,GGAGCAACACUUGCGUACUTT against 1810009O10Rik,inactive: 1.61
18,CGGGAUCUUAGAAGAGCAATT against Ptpre,inactive: 0.964
19,GCAGGACAAAUUGGUUGUGTT against Olfr457,inactive: -1.01
20,CCUGAUCUUAAACAAAGAATT against 2610507B11Rik,inactive: -0.942
21,CGACCUAUUAGAGAGCAACTT against Zfp248,inactive: 1.08
22,GCAGACAGAUCGCUUCAACTT against Dok4,inactive: 0.045

row,Sequence,z-score
1,UUCCUCAAUGCUUCCAUUUTT against Olfr1454,inactive: 1.06
2,CGUUCUUCAGCUAUUCAUUTT against Slc37a3,inactive: -1.66
3,GCUGAUGUAUGGAAUGCUCTT against Trappc1,inactive: 0.506
4,GGACUGUGAUCAGGUUUGUTT against Elk3,inactive: -1.36
5,GGGCUAAAGAAACAAUCCCTT against Gpr2,inactive: -0.131
6,GGAUCAACAUCAGAGUUCUTT against BC031441,inactive: -0.0531
7,GCUUCCUCUAUUCGAUUUUTT against Rab6ip1,inactive: 0.187
8,CCGAAUCCUUAAAAUCUGCTT against Zfp78,inactive: -0.186
9,GGCAUUAAGUGCUUGCUCATT against AI837181,inactive: -1.25
10,GCUACAGAAUCAUACGAUGTT against Zfp521,inactive: -0.234
11,GGUAUCUCUACCUCGAGGATT against Cdk4,inactive: 0.825
12,CCAAAAUCGGGAAAGGAAATT against Ldb2,inactive: -0.682
13,GCGUGUCCCUUCAGUUUGUTT against Zfp96,inactive: 0.122
14,CGAUAAUGAAAGUGACCAUTT against C80913,inactive: -0.176
15,GGCCCAACCUUGGAUCUUUTT against 0610006K04Rik,inactive: -0.704
16,GGUAUAAUUGGAAUUGUGATT against Morc,inactive: -0.367
17,CCAUAUCGAGUACCUCCAATT against Rtn4rl1,inactive: -1.43
18,GGUGCUGCCCUGUCUAUUGTT against Gm587,inactive: -0.0762
19,GCUUGCUCUAUUGCCAAUATT against Crem,inactive: -0.0675
20,GCUCCUGUGAUUGAUGCAGTT against Dnchc1,inactive: -0.899
21,GCUUGGGUUCAGUGUGAAGTT against LOC547343,inactive: -1.12
22,GGACUUUUACCAGUUCUCCTT against Ece2,inactive: 0.967

row,Sequence,z-score
1,GCAUUAAAACUUCCUUUUGTT against Ubl3,inactive: 0.603
2,GCUCGUUCUGAAGAUAAGUTT against C80587,inactive: 0.133
3,GCUGUAAGCAGUCCAAAUATT against Kdelr3,inactive: 1.13
4,GCUGGUUUCUUAUAGGAAGTT against Dnmt3b,inactive: 0.069
5,GGACUUCUAUCCACUCACGTT against Helz,inactive: -1.39
6,GGUAUGUCUGUAACUCUGGTT against Il15ra,inactive: 1.27
7,GCGUGAGCUAAUGUUCACATT against Agpat2,inactive: -1.04
8,GGUCAUCUCCAGAUACCCATT against 6330406L22Rik,inactive: 2.52
9,GGAGAACAAGUGUCUGCUUTT against 9430079M16Rik,inactive: -2.12
10,GGUACAGAUCUGGUCCUACTT against Il17rc,inactive: 1.47
11,GGAGUGCUUUUAAAUCCCUTT against 1110037N09Rik,inactive: -0.954
12,CGUAUUCCAUGGUUUCCUATT against Whrn,inactive: -0.24
13,GGAGAUUGAACCAAAGCCUTT against Smpdl3b,inactive: -0.0281
14,GCAGACGACAAGUUCUACATT against Ckap1,inactive: 0.0961
15,GGUUCCUUAAUUUAUUGCCTT against 1110004B15Rik,inactive: 1.02
16,CCCUGCUGGUUGGUAAUCATT against F830005K03Rik,inactive: -1.63
17,GUCAUCACAAGUCAAGAAGTT against Muc10,inactive: 0.929
18,GAUCAUCCAGCUGAAGCAGTT against Mafg,inactive: 0.437
19,CCCGGCCACUGUUAUGAGATT against BC056474,inactive: -0.0911
20,GGAAACUACUCCAUGGUGATT against Olfr967,inactive: 1.83
21,GCAAUGGACUGACAUGUCATT against AI481750,inactive: 0.766
22,CGUGCUAAACCAAGACUUATT against Lyplal1,inactive: -0.816

# Exported as tab-separated lines: entries from further up
row	Sequence	z-score
20	GCUCCUGUGAUUGAUGCAGTT against Dnchc1	inactive: -0.899
21	GCUUGGGUUCAGUGUGAAGTT against LOC547343	inactive: -1.12
22	GGACUUUUACCAGUUCUCCTT against Ece2	inactive: 0.967
1	GCAUUAAAACUUCCUUUUGTT against Ubl3	inactive: 0.603
